One data set has as its system pig skin. As to the kind of experiment: Local cutaneous blood flow in pigs after topical application (laser Doppler). It counts as in vivo. As for the experimental part: A stable depth of sedation was maintained with continuous intravenous methohexital, titrated to a minimal lid reflex and a regular respiratory rate. Throughout the experiment, the animals spontaneously breathed through a “snout-cone” connected to a standard anesthesia machine delivering 100% oxygen. The dorsal surface of the animal was cleaned with tepid water. Ten sites (2×2 cm each) were defined on the dorsal surface of the animal with permanent marker. […] MAP was recorded at the start and end of each Doppler scan. A dose volume of 0.1 mL of vehicle, control, or test article was applied to each site. L-arginine monohydrate and sildenafil citrate were prepared in commercially available Veecogel Cream base formulation (available from PCCA, 9901 South […], Houston, Tex., USA) containing […], Coconut oil, Capryloic Acid, […], Squalane, Boric Acid, Polysorbate 80, Sorbitan Monooleate 80, Simethicone, Butylated hydroxytoluene. Sildenafil citrate 1% was dissolved in propylene glycol 2% and combine with base with constant mixing. L-arginine monohydrate 10% and 1% were dissolved in 2% propylene glycol and combined with the Veecogel described above. No two adjacent sites were administered the same concentration of any control or test article and administration was temporally spaced to allow at least 2 minutes between dosing each site. […] Blood flow at the untreated, control site was measured immediately prior to and immediately after the measurements at the treated sites. […] Serum levels of local drugs were not measured. […] Changes in blood flow are expressed as a percent change from control blood flow. […] Thus, the change in cutaneous blood flow at a treatment site can be determined by the formula: [formula] where Sx is the blood flow at an injected site X min after application, So is the baseline flow at that site prior to application, Cx is the flow at the control site X min after the application, and Co is the blood flow at the control site at the same time that the baseline flow measurements were made.

Data set [1] concerns hands of normal human volunteers. Put plainly: Skin temperature recovery of the hand after cold water immersion (infrared camera). It counts as in vivo. The note with it: before treatment. As for the experimental part:
The effects of L-arginine and sidelnafil citrate in the regulation of human blood flow was determined by measuring the rate of skin temperature recovery in the hands of normal human volunteers following a period of cold water immersion. The measurements were performed at room temperature 25° C., for a period of 30 minutes after acclimatization. L-arginine monohydrate and sildenafile citrate were prepared in commercially available Veecogel Cream base formulation containing Krisgel 100™, Coconut oil, Capryloic Acid, Triglicerides, Squalane, Boric Acid, Polysorbate 80, Sorbitan Monooleate 80, Simethicone, Butylated hydroxytoluene. Sildenafil citrate 1% was dissolved in propylene glycol 2% and combine with base with constant mixing. L-arginine monohydrate 10% and 1% were dissolve in 2% propylene glycol and combine with the Veecogel described above.
Skin temperature was measured with an infrared camera FLIR T300 (FLIR Systems, Inc., Boston, Mass., USA). Changes in skin temperature were determined after cooling of hand for 2 minutes in ice water by analyzing individual thermal images with FLIR Quick Report software. The effects of test drugs were determined following application of substance to the cooled hand. […]

Consider `N=C(N)NCCC[C@H](N)C(=O)O` [Arginine, L-arginine], for which the “Local cutaneous blood flow, FLOW (MV), Baseline” value with pig skin (dose 1%) amounted to 0.52 MV; in the data set with pig skin (dose 10%), 3.4 MV. In addition, the “Baseline Temp (starting hand temperature after cooling for 2 minutes)” value in data set [1] (dose 10% W/v) was 12 °C.
Regarding `CCCc1nn(C)c2c(=O)[nH]c(-c3cc(S(=O)(=O)N4CCN(C)CC4)ccc3OCC)nc12` [Sildenafil, 5-[2-ethoxy-5-(4-methyl-1-piperazinylsulphonyl)phenyl]-1-methyl-3-n-propyl-1,6-dihydro-7H-pyrazolo[4,3-d]pyrimidin-7-one], the “Local cutaneous blood flow, FLOW (MV), Baseline” value with pig skin (dose 1%) is −13.58 MV. Further, the “Baseline Temp (starting hand temperature after cooling for 2 minutes)” value in data set [1] (dose 1% W/v) was determined as 14 °C.

(Values after patent US20180036314A1, “METHODS AND COMPOSITIONS FOR TREATING PERIPHERAL VASCULAR DISEASE” (Exodos Life Sciences Limited Partnership, priority 2009, published 2018).)
